Experimental data reported in PubChem BioAssay AID624297 (National Center for Advancing Translational Sciences (NCATS), 2012).
The campaign covered roughly 340,000 compounds. About 6,200 (1.8%) were called active. Inconclusive means that the source gave no clear call. Such entries were picked first, then a sample of the others. Calls come from the whole dose curve; as a rule, active = well fitted activation curve with a large enough effect; inconclusive = small, poorly fitted or top-dose-only effect; inactive = no such curve, though single readings can be large or run the other way. A potency beside an inconclusive call is a rough fit, not a confirmed value.

assay: A quantitative high throughput screen for small molecules that induce DNA re-replication in SW480 colon adenocarcinoma cells.; note: nearly all actives have a fitted effect of over 55% in size; for re-replication activation: % of control where 0% means no effect; settings: Hoechst DNA content imaging, 48 h; re-replication activation: at 46.1 µM (top of the series) unless noted
How it was run: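 Cells (250 per well) received 23 nL compound or DMSO by pin tool and were kept 48 hr at 37 C, 5% CO2. Nuclei were then stained with Hoechst for 40 min and scanned for DNA content.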
Potency is the fitted concentration of half-maximal effect.

Row | Compound | Potency | re-replication activation
1 | CC1(C)C[C@@H](O)CC2(C1)C[C@]1(C)CC(O)[C@H]2C(C)(C)C1 (stereo partly specified) | inconclusive: 20.6 µM [activator, partial curve, poor fit] | 
2 | Cc1cccc(C(C#N)c2ccc(Cl)nn2)c1 (stereo unspecified) | inconclusive: 23.1 µM [activator, partial curve, poor fit] | 
3 | Cc1ccc(Cl)cc1NC(=O)N(C)CCO | inactive | 
4 | CCN(CC)c1nc2c(c(=O)[nH]c(=O)n2C)n1Cc1ccccc1Cl | inactive | 
5 | CCOc1ccc(OCC)c(NC(=O)C2CCN(S(=O)(=O)c3cccnc3)CC2)c1 | inconclusive: 18.4 µM [activator, partial curve, poor fit] | 
6 | CC(C)(C)c1ccc(OCCC(=O)Nc2cccc(S(=O)(=O)N3CCCC3)c2)cc1 | inconclusive: 20.6 µM [activator, single point] | 
7 | O=S(=O)(NCc1ccccc1Br)c1ccccc1Br | inconclusive: 0.259 µM [activator, single point] | 
8 | CCn1c(SCC(=O)c2c[nH]c3ccccc23)nnc1-c1cccs1 | active: 14.6 µM | 
9 | O=C1C=CC(=O)C(C2=C3C(=O)N(CCc4ccccc4)CC(=O)N3CCC2)=C1 | inconclusive: 20.6 µM [activator, single point] | 
10 | COc1ccc(C(=O)CSc2nnc(-c3ccco3)c(-c3ccco3)n2)cc1 | active: 6.51 µM | 
11 | CN(C)c1ccc(CNc2ncnc3sccc23)cc1 | inconclusive: 6.51 µM [activator, partial curve, poor fit] | 
12 | Cc1ccc(SCC(=O)Nc2nnc(-c3ccco3)o2)cc1 | inactive | 
13 | Cc1onc(-c2ccccc2)c1-c1nnc(CN2CCN(S(=O)(=O)c3ccccc3F)CC2)o1 | inactive | 
14 | Cc1cc(NC(=O)C(C)SCC(=O)OC(C)C(=O)Nc2ccc(F)cc2Cl)no1 (stereo unspecified) | inconclusive: 7.31 µM [activator, partial curve, poor fit] | 
15 | C#Cc1ccc(CN2CCN(CCc3ccccc3)C(CCO)C2)cc1 (stereo unspecified) | inconclusive: 23.1 µM [activator, single point] | 
16 | CC(=O)Oc1ccc(C2=Cc3ccc(OC(C)=O)cc3OC2C)cc1 (stereo unspecified) | inconclusive: 18.4 µM [activator, single point] | 
17 | O=C(CN1CCCCCC1)Nc1ccc(Br)cn1 | inconclusive: 11.6 µM [activator, single point] | 
18 | COc1ccc(-c2cc(C(=O)N3CCN(c4ccccc4O)CC3)c3ccccc3n2)cc1OC | inconclusive: 16.4 µM [activator, single point] | 
19 | CCC1CCCCN1C(=O)CCn1c(=O)oc2ccccc21 (stereo unspecified) | inconclusive: 0.164 µM [activator, full curve, poor fit] | 
20 | c1cc(-c2cn(C[C@H]3CC[C@@H]([C@@H]4CC[C@H](Cn5cc(-c6ccsc6)nn5)O4)O3)nn2)cs1 | inconclusive: 29.1 µM [activator, single point] | 
21 | CCOc1ccc(NC(=O)CN(C)C(=O)c2ccc(NC3CC3)c([N+](=O)[O-])c2)cc1OCC | inconclusive: 29.1 µM [activator, single point] | 

Molecules shown so far that have an NH in an aromatic ring:
Row | Compound | Potency | re-replication activation
4 | CCN(CC)c1nc2c(c(=O)[nH]c(=O)n2C)n1Cc1ccccc1Cl | inactive | 
8 | CCn1c(SCC(=O)c2c[nH]c3ccccc23)nnc1-c1cccs1 | active: 14.6 µM | 

Remaining list, next part

Row | Compound | Potency | re-replication activation
23 | O=C(COC(=O)c1ccccc1Nc1ccccc1)NCc1ccco1 | inconclusive: 22.4 µM [activator, single point] | 
24 | CCOc1ccc(-n2nnnc2SCC(=O)Nc2cccc(O)c2)cc1 | inconclusive: 0.461 µM [activator, full curve, poor fit] | 
25 | CCCC(=O)Nc1ccc(NC(=S)NC(=O)c2cccs2)cc1 | inconclusive: 7.31 µM [activator, full curve, poor fit] | 
26 | CCN1CCn2c3c(c4cc(Cl)ccc42)CCCC31 (stereo unspecified) | inactive | 
27 | COC(=O)COc1ccc(S(=O)(=O)N2CCCCC2)cc1[N+](=O)[O-] | inactive | 
28 | OCC1OC(n2ccc3c(NO)ncnc32)C(O)C1O (stereo unspecified) | inconclusive: 0.291 µM [activator, full curve, poor fit] | 
29 | Cc1ccc(OCCNc2cc(N3CCN(CCO)CC3)ccc2[N+](=O)[O-])cc1C | inconclusive: 29.1 µM [activator, single point] | 
30 | CCc1noc(C)c1C(=O)N1CCC(CCC(=O)Nc2cccc(OC)c2)CC1 | inconclusive: 5.17 µM [activator, full curve, poor fit] | 
31 | COc1cc(NC(=O)c2ccc(F)cc2)c(OC)cc1NC(=O)CN1CCCCC1 | inactive | 
32 | Cc1cccc(NCc2ccc(O)c3ncccc23)c1C | inconclusive: 23.1 µM [activator, single point] | 
33 | COc1cccc(/C=N/NC(=S)NC2CC3CCC2C3)c1OC (stereo unspecified) | inactive | 
34 | Nc1nnc(SC2CC(=O)N(c3ccccc3)C2=O)s1 (stereo unspecified) | inconclusive: 29.1 µM [activator, single point] | 
35 | CCOC(=O)c1c(-c2ccc(OC)cc2)csc1/N=C/C1C(=O)CCCC1=O | inconclusive: 18.4 µM [activator, single point] | 
36 | CCOc1cc(CNCCCN2CCOCC2)ccc1OCC(=O)Nc1cccc2ccccc12 | inconclusive: 20.6 µM [activator, single point] | 
37 | Cc1ccc(C(=O)O/N=C/c2c(N3CCOCC3)n(C)c3ccccc23)cc1 | inconclusive: 0.58 µM [activator, full curve, poor fit] | 
38 | O=c1c2ccccc2c(/C=N/c2ncn[nH]2)c(O)n1Cc1ccccc1 | inconclusive: 29.1 µM [activator, single point] | 
39 | COc1cc(/C=N\NC(=O)C(C)(C)O)ccc1OC/C=C/c1ccccc1 | inconclusive: 25.9 µM [activator, partial curve, poor fit] | 
40 | CCOC(=O)c1cnc2nc(N3CCOCC3)nn2c1N | inconclusive: 29.1 µM [activator, single point] | 
41 | COc1cc(Cl)c(C)cc1NC(=O)CSc1nc2ccccc2o1 | inconclusive: 23.1 µM [activator, single point] | 
42 | Cc1ccc2nc(-c3ccco3)c(Nc3ccccc3)n2c1 | inconclusive: 0.0651 µM [activator, full curve, poor fit] | 
43 | CCN(CC)c1ccc(/C=N/NC(=O)OC)c(O)c1 | inactive | 
44 | N#CC1=C(N)Oc2cc(N)ccc2C1c1cc(Br)cs1 (stereo unspecified) | active: 16.4 µM | 

Row | Compound | Potency | re-replication activation
45 | O=C(CSc1nc2ccccc2o1)N/N=C/c1ccc(O)c(O)c1 | inconclusive: 18.4 µM [activator, single point] | 
46 | COc1ccc(N2C(=O)C3ON(C4SC(=S)N(C)C4(C)C)C(c4ccc(Cl)cc4)C3C2=O)cc1 (stereo unspecified) | inconclusive: 16.4 µM [activator, partial curve, poor fit] | 
47 | CN(C)CCNc1nc2sc3c(c2c(=O)n1CCc1ccccc1)CCCCC3 | active: 18.4 µM | 
48 | CCOC(=O)c1ccc2nc(NC(=O)c3ccco3)sc2c1 | inconclusive: 16.4 µM [activator, single point] | 
49 | Cc1nc2nc(C)c(NS(=O)(=O)c3ccc4c(c3)CCCC4)c(=O)n2[nH]1 | inactive | 
50 | Cc1cccc2sc(N(CCCN(C)C)C(=O)c3sc4ccccc4c3Cl)nc12 | inconclusive: 18.4 µM [activator, single point] | 
51 | CC1(C)Cc2c(C#N)c(N3CCN(C(=O)c4ccco4)CC3)nc(Cc3ccccc3)c2CO1 | inconclusive: 18.4 µM [activator, partial curve, poor fit] | 
52 | c1ccc(N2CC3CCc4ccccc4C3=N2)cc1 (stereo unspecified) | active: 7.31 µM | 
53 | Cc1nn(C2CCS(=O)(=O)C2)c(Cl)c1/C=C/C(=O)OCC(=O)Nc1ccccc1OC(F)F (stereo unspecified) |  | inactive: 1.44% [at 9.22 µM]
54 | Nc1nc(Nc2cccc(F)c2)nc(NCc2ccco2)c1[N+](=O)[O-] | inconclusive: 18.4 µM [activator, single point] | 
55 | CN1CCN(CCCCOc2cccc3ccccc23)CC1 | inconclusive: 20.6 µM [activator, single point] | 
56 | O=C(NC(Cc1ccccc1)C(=O)Oc1ccc2c(C(F)(F)F)cc(=O)oc2c1)OCc1ccccc1 (stereo unspecified) | inconclusive: 29.1 µM [activator, single point] | 
57 | COc1ccc(OC2C(=O)N(CCc3ccc(OC)c(OC)c3)C2c2ccc3c(c2)OCO3)cc1 (stereo unspecified) | inconclusive: 14.6 µM [activator, partial curve, poor fit] | 
58 | Cc1cccc(OCC(=O)Nc2cc(S(=O)(=O)N3CCCCC3)ccc2N2CCN(C)CC2)c1 | inactive | 
59 | O=C(C1=C[C@@H](c2ccc(C(F)(F)F)cc2)C[C@@H](OCCCCO)O1)N1CCCCCCC1 | inconclusive: 3.66 µM [activator, full curve, poor fit] | 
60 | COc1ccc(S(=O)(=O)N2CCC[C@H]2C(=O)NCc2ccc(Cl)cc2)cc1 | inconclusive: 2.59 µM [activator, partial curve] | 
61 | CCN(CC)CCn1c(N)nc2ccccc21 | inconclusive: 13 µM [activator, partial curve] | 
62 | CCCn1c(CNc2ccccc2O)nc2ccccc21 | inconclusive: 29.1 µM [activator, single point] | 
63 | CC(=O)c1c(C)[nH]c(C(=O)OCc2csc(CC(=O)Nc3ccccc3C)n2)c1C | inconclusive: 6.51 µM [activator, full curve, poor fit] | 
64 | O=C(Nc1nc(-c2ccco2)c(-c2ccco2)s1)c1cnccn1 | inactive | 
65 | COc1ccc(C)cc1C(=O)CCC(=O)NC1CCCCC1 | inconclusive: 3.26 µM [activator, full curve, poor fit] | 
66 | COc1cc(/C=N/O)c(Br)cc1OCC(=O)Nc1ccccc1C | inconclusive: 0.58 µM [activator, partial curve, poor fit] | 
